Experimental data taken from PMC10781740.
Results are given in words; binding and its absence hold for the method and conditions named. In cells and extracts the contact can be indirect. Some results given as binding are weak or reduced against the parent protein; the word gives no strength.

Amino acid sequences for entries named in this document (tags omitted).
UniProt Q9Y6K9: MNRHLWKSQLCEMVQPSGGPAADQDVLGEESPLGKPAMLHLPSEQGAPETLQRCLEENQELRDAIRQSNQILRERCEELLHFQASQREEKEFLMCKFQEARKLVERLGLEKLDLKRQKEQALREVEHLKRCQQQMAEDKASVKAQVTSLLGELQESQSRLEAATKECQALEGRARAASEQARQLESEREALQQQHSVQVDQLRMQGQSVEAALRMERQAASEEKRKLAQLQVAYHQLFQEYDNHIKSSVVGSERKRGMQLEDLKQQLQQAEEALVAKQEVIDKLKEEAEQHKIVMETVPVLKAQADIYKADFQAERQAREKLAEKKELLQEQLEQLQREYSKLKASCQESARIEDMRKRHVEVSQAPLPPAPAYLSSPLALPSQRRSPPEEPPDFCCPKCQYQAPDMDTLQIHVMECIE
UniProt Q96EP0: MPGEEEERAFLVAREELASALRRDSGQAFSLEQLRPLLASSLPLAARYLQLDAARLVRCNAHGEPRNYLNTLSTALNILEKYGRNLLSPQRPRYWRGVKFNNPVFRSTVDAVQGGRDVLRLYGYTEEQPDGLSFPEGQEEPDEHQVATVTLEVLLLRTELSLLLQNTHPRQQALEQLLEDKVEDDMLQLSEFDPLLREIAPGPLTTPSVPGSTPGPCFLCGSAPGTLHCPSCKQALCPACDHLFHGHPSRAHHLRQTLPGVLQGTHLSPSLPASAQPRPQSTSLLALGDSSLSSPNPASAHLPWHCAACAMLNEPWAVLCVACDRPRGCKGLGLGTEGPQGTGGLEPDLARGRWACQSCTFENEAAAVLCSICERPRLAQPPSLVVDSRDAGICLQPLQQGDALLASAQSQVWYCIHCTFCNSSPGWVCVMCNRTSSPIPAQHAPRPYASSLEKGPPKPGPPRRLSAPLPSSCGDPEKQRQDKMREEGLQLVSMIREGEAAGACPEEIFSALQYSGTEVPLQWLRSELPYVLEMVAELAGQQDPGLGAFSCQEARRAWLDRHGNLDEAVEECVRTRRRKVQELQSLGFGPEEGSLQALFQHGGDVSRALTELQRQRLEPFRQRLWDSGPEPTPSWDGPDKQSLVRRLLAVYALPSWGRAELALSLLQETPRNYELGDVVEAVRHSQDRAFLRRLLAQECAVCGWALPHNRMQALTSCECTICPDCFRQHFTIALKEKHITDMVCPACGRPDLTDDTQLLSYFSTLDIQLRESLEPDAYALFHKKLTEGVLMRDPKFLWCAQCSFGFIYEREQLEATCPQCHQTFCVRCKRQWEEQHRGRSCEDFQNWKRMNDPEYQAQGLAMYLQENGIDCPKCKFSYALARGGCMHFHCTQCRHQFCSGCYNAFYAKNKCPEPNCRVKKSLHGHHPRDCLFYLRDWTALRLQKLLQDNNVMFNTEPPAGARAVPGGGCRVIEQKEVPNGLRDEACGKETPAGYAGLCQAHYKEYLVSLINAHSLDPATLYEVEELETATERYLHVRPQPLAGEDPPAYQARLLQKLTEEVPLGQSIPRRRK

Biological target: tandem-affinity purification (TAP)-tagged NEMO (UniProt Q9Y6K9)
Experiment: co-IP; Flag-M2 beads on lysates of A549 TAP-NEMO, TAP-HOIP-WT or TAP-HOIP-C885S rescue cells; cells primed with 100 U/mL IFNα for 24 h, mock or infected with SeV 1:300 (3 h p.i. for TAP-NEMO; indicated times for TAP-HOIP); 100 mM NaCl, 40 mM Tris-HCl pH 7.5, 1 mM CaCl2, 1 mM MgCl2, with 1% Triton X-100 and 0.1% SDS for the sonicated pellet; 16 h at 4 °C; Western blot

Substance: HOIL-1-interacting protein (HOIP) (from UniProt Q96EP0 1-1072) (enzyme)
- binding: binds
